According to PMC10053972:
No constants are given. Whether binding was seen depends on the method and setting. Binding seen in cells or lysates may run through a third protein. Some binding calls cover weakened binding; strength is not graded here. For some assays here: Where a sequence is shown, tags or fusion partners need not be part of it.

T1: Cell division cycle associated 8 (CDCA8), in 293 T cells (human (endogenous in 293 T)) (UniProt Q53HL2)
T1 sequence: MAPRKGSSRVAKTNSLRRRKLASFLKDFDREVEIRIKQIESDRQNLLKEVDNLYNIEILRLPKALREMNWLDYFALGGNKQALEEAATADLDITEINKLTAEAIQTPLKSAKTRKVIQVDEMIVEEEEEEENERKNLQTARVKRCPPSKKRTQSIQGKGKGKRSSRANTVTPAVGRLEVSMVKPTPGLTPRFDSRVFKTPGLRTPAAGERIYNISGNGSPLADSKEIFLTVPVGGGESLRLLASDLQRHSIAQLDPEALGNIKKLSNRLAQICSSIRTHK

T2: endogenous Cell division cycle associated 8 (CDCA8) (human (endogenous in A375 and OM431)) (UniProt Q53HL2)
T2 sequence: T1 sequence

B1: TMED3-Flag (protein, UniProt Q9Y3Q3 24-217)
chain: PCGAELTFELPDNAKQCFHEEVEQGVKFSLDYQVITGGHYDVDCYVEDPQGNTIYRETKKQYDSFTYRAEVKGVYQFCFSNEFSTFSHKTVYFDFQVGDEPPILPDMGNRVTALTQMESACVTIHEALKTVIDSQTHYRLREAQDRARAEDLNSRVSYWSVGETIALFVVSFSQVLLLKSFFTEKRPISRAVHS
B2: endogenous TMED3 (protein, UniProt Q9Y3Q3 24-217)
chain: B1 chain

Tests used:
[1] = biological target: T1, Cell division cycle associated 8 (CDCA8), in 293 T cells (human (endogenous in 293 T)); assay: co-IP; exogenous Co-IP: proteins of 293 T cells infected with TMED3-Flag immunoprecipitated with Flag, CDCA8 or IgG, then western blot
[2] = biological target: T2, endogenous Cell division cycle associated 8 (CDCA8) (human (endogenous in A375 and OM431)); assay: co-IP; endogenous Co-IP: proteins of A375 and OM431 cells immunoprecipitated (IgG control), separated by 10% SDS-PAGE and blotted for TMED3 and CDCA8

Binder | binding [1] | binding [2]
B1 | binds | 
B2 |  | binds
